Z-score data for 107 sequences are collected here from PubChem BioAssay AID1508600 (Functional Genomics Laboratory (NCATS/FGL), 2020).

Hit rate of the full screen: of about 53,000 sequences, about 3,700 (7%) were called active.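 Rule for the calls: active = gene knockdowns whose robust z-score for IL-1 alpha signal is at least 2 or at most -2, so actives lie on both sides; inactive = the rest.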 The list shows a part of the results.

This assay can be described thus: Components of the Cytosolic LPS Sensing Pathway: Gene Identification via Genome-wide siRNA Screen.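 Note: robust z of the log signal after scaling to non-targeting control siRNA wells of the plate.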 The conditions noted are these: RAW264.7 macrophages, IL-1a HTRF, actives lie on both sides, screened at 100 nM (by protocol), cells primed 5 h with Pam3CSK4 first. An outline of the steps: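 Mouse macrophage line RAW264.7 is transfected with siRNA (100 nM final), grown 48h, primed with TLR ligand Pam3CSK4 5 h and given intracellular LipidA 24 h. IL-1a in supernatant is read by HTRF and viability by luminescence.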
For orientation: TR-FRET usually uses a lanthanide donor and a delayed reading to cut background.
Consider GCUACUUGUUGAGACCCAATT against Esr1, for which the z-score is inactive: -0.616. Regarding GGCUGAGGAAUCAAAAUGUTT against Mdh1, the z-score is inactive: 1.15. For CCGGGACAAGAAUUUCCUCTT against Xylt2, the z-score is inactive: 1.17.

GCAGAUCGAGUGAGCUCUATT against Ccr2: the z-score was inactive: -0.0424. With GGAGAUCAUCCACUUCCAGTT against Dbh, the z-score was active: 2.06. The result for GGACACUUGCUCGACUUCATT against Palb2 reads inactive: -0.0168; that for CCUUCCUCCUUUAUGAGCATT against Tsga10, inactive: -0.58. The result for GGAAGUGGUAAUUUCAGUATT against Ssr1 reads inactive: 1.45. With GGUUAUCAAAGCUAAGAAUTT against Ifi209 the figure was inactive: -0.0859; with CCUGGAUAUGCGCAAGUGUTT against Oxt, inactive: 1.56; with GGAGUGAAAAAAAUUCACATT against Chrna1, inactive: 0.378. As for GGUUGAUGUCAGUGGAAGATT against Dab2ip, the z-score is inactive: -0.15.

For the sequence GACACAGCAUCUUCAUGGATT against Vmn1r42, the z-score was inactive: 1.77. With GGUGGCUAUAACAGAGCCUTT against Rdh18-ps, the z-score is inactive: 0.173. With GGAACACAAGAUUUUCCUGTT against Ppp2r5c the figure was inactive: 0.559. For CGAGCGGAUGCUGGUAUUUTT against Kif18b, the z-score was inactive: -1.78. Consider CCUGCAUGCCUAUGUGCGUTT against Ace, for which the z-score was active: 2.89.

On to CCUUGUGAUUGACGAGUGUTT against Snrpg, for which the z-score was inactive: -1.51. With GGAAUUGACUUUAAGACAATT against Boll the figure was inactive: -0.413. With CGUGGAUGAGAACUAACCUTT against Rpl31, the z-score was inactive: 1.24. With GGACAGUGCUCGAAACCGATT against Smagp the figure was inactive: -0.58. Regarding GGAAGAAGCACAAUUUGAATT against Selenof, the z-score is inactive: -0.946. Take GGUUUCAAUUCUGUGUUCATT against Unc5b: the z-score is inactive: -1.42. GGGUAGGUCCUUUGUAACCTT against Pcdhb16: the z-score was inactive: -0.58. The result for CCCUAUACACAAGAUGAACTT against Cd96 reads inactive: -0.709. GGUACAUGAUUACCAGCCUTT against Sdk2: the z-score is active: -2.26. With GGAUUGAAAAGAUGAAUCGTT against Mrpl58 the figure was inactive: 0.704; with GCCCUAUAUGUACCAAGUGTT against Mmp14, inactive: 0.273; with GGACUUCUCUGGGACUUCATT against Syt9, inactive: 0.406.

As for GGGAGUCCCAAUUGUGUGCTT against Gpr88, the z-score was inactive: -0.841.

For GGAUUCUGAGUGUACGUUUTT against Zfp28, the z-score was inactive: 0.0227. The result for GAGAAGAGAGAGAAGCAUUTT against Tssk6 reads inactive: 0.339; that for GCUUAGUGACAUUCAAUCATT against Pde1c, inactive: -0.447. With GGAAAUGUAUCGCUUGAAUTT against Dna2 the figure was inactive: -0.336; with GGACUAUUCACAAAGAAGATT against Dusp11, inactive: -1.24; with GGACGAACCUUUAUACCAGTT against Arhgef15, inactive: 0.452. The result for GACAGAGGAAUUUGUCUCCTT against Olfr1120 reads active: 2.1; that for GGAGGAUUGAGCAGUGUCUTT against Otos, inactive: -1.63; that for GGCUGUGCAAGAUGUUCUATT against Gpr27, active: 3.29.

Consider GCAAAGGAUCGCUUGAAAATT against Mrpl40, for which the z-score was inactive: -1.15. Consider GCGAACCGAGAGUCUAUACTT against Gm9725, for which the z-score was inactive: 1.37. Take GGAUGUGCGAUAUAAACCATT against Prl6a1: the z-score is inactive: 0.316.

GGCCUCAACAUGAUGACUGTT against Enox1: the z-score was inactive: 0.539. Take GGAAGGAAACUACGAAGGUTT against Edn1: the z-score was inactive: -0.534. The result for GGUUGUAGAAGAUGGCUAUTT against Ppp1ca reads inactive: 0.529; that for GGCAAUGAUUAAAGGAAAATT against Olfr1436, inactive: 0.716; that for GGAUAACAUGAUCUCUACUTT against Klc4, inactive: 0.792. For GGUGGACAUGAGGAAACGATT against Use1, the z-score is inactive: -1.38. Take GGUGGAAUUUCAGCUCUACTT against Zcchc7: the z-score is inactive: 1.18. With GGUUCGAGUUUCAUACUAUTT against Padi4, the z-score is active: 2.56. With GGAGAUCACUAUGUUCUGATT against Ivd the figure was inactive: 1.46; with GGAGACAGUUCAGAAGUGGTT against Glp2r, inactive: 0.0837; with GCUUGGAAACUCGUCUAAATT against Map1lc3b, inactive: 0.783. With GGCUGAGUAAUGAACCUCUTT against Gmnn the figure was inactive: -0.672; with GGAGACGACAAAAAUCAGATT against Mrpl32, inactive: 0.0471; with GCUAAGUCCCAGCUAAGUUTT against Szrd1, inactive: 0.337. With CCAUUAUUCUAGUGUCCUATT against Olfr1368, the z-score was inactive: -0.753. With GCCUUGAAUACCACAUUUCTT against Arl10 the figure was inactive: 1.23; with GGACAUCUGUGUUUAUUCATT against Tfcp2, inactive: 0.0486. As to GGUAGAGAUCAUCAAUGCATT against Ggt5, the z-score is inactive: 0.0858. For the sequence GGCAAUGAGACAAUUGUCATT against Cpe, the z-score is inactive: -0.638.

Regarding GGUUGUACCUACAACAGAUTT against Tiprl, the z-score was inactive: -0.773. With GGUACCUGAGGUAGAAAAGTT against Pnma3 the figure was active: -2.5; with CCAAUUUGACCCAUACUAUTT against Crtc2, inactive: 1.61; with UCAGGAUACAAUCAUCGCCTT against Olfr101, inactive: 0.0316. With GGAUUUCAUCAAAGGUCUUTT against Kcnip4 the figure was inactive: -0.174; with GUCCCACUCAGGAGAAUUUTT against Lrrc61, inactive: 0.917. With GGCUUAUCUCUAAAUCCAATT against Afp the figure was inactive: 1.52. Take GGCAAUAAGCACCUGGGUATT against Serpini2: the z-score was inactive: 0.594.

Regarding CCAGACUAGAUAUCAUAUCTT against Nup54, the z-score is inactive: -0.272.

On to GGGAACCAGCCAGUUCAAGTT against Ap1g2, for which the z-score was inactive: 1.39. As to GGCAGGAGAAAGGCCUUUUTT against Olfr535, the z-score was inactive: 0.123. The result for GGCUCCUAGCUGUUUCAGUTT against Hormad1 reads inactive: -1.62; that for GGAGAAGGUGAAACAAUUGTT against Ubap2l, inactive: -1.6; that for GGUGCAGUUGAUGAUGAUUTT against Patl1, inactive: -0.279. The result for GGUGACCAGCAAGUCAUGCTT against Chrdl1 reads inactive: -0.663; that for GGAUCCUGGAUAAUCUGGGTT against Plscr1, inactive: -1.35; that for GCGGAAGUGGAUUCUAGAGTT against Nat9, inactive: 1.06.

For GGUGUCUUCAAGAGUCAUUTT against Serp1, the z-score was inactive: 0.53. As for GGUGAUCAUCAGUGAUAAGTT against Ttll9, the z-score was inactive: -0.77.

On to GGAAAGUCUACAUGUAUUATT against Enpp6, for which the z-score was inactive: -0.886.

Consider CCUCAGAUAUUACAUACACTT against Srsf3, for which the z-score is inactive: -0.424. For GUUCUGAGAGGAAAAGACUTT against Olfr559, the z-score is inactive: -1.16. For the sequence GCAUUUUCUGCUCGAUAUUTT against Skil, the z-score is inactive: 1.62. As to UACACUAGUGCUGUUUACATT against Olfr192, the z-score was inactive: -0.804. The result for GCAGUGGUAACAGUGGCCATT against Reg3g reads inactive: 0.682; that for GGUAAACUCAAGUUUUCAGTT against Inpp5j, active: 2.36; that for GGAAAUCAACAGCUCACAUTT against B3gnt9, inactive: -0.327. The result for CCACUGAAAGGAACAACAATT against Col6a2 reads inactive: 0.447; that for GGUGUUUGUGAAGGAGCAGTT against Fam117a, active: 2.98; that for GGGAAGAUGUGAUGUCUUUTT against Rab29, inactive: -0.556.

As to GGUGAUGCUAGUGAUUGAUTT against Ngb, the z-score is inactive: -1.34. Take GGUGGCACUGAUGGAAUUGTT against Hsd17b12: the z-score was inactive: 1.25.

As to GACCUACAAGAAGUUCGGCTT against Nkx2-4, the z-score was inactive: 1.75. The result for GGUAGAGCUAAGUAAAGAGTT against Pwp1 reads inactive: -0.977; that for “GCUAUGCAGUGACCACACUTT against C130046B21Rik”, inactive: 1.67; that for GGGAAAGUGUUCUCACUCATT against Zfp111, inactive: 0.273.

As to GGCAAUGCACUUAUAACUCTT against Olfr118, the z-score is inactive: 0.389.

On to CGAACUAAGCCAAUCUCUGTT against Pcdha2, for which the z-score is inactive: 0.175.

For the sequence GGACUACUCUGCCAGAUGGTT against Fam71f1, the z-score was inactive: 0.0252. With GCUGACCAUGGAGUAUAACTT against Ccdc39 the figure was inactive: -0.56; with GGCCAACACUCAGAAAAGGTT against Zfp474, inactive: 1.59. The result for GGAGAAGCAGAUUCUUCAATT against Calhm6 reads inactive: -0.0547; that for GCCAUCUACUCUUUAAAUATT against Pdha1, inactive: 0.351; that for GGUCAAAAUUGAAUAUCCATT against Slc52a2, inactive: -0.0461. As to GAUAAAGGAUACCUCAGUGTT against Scrt1, the z-score is inactive: -0.721. The result for CCAACAUAUUGUUCGUCGGTT against Slc13a2 reads inactive: -0.59.
